## Results of single-concentration screens

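Assay of Toxoplasma gondii numbers, read through their beta-galactosidase reporter with a colour substrate. Concentration: 50 µM. The record gives no direction; the compounds picked for IC50 retests had high values, so higher reads as fewer parasites. About 18,000 compounds were tested under these conditions; 0.94% (about 170) showed 50% or more at least once.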

Values are the deposited “Percent Effect”, in %.
The controls that fix the scale are not given in the record; negative values are as filed.
This is an unselected part of the compounds tested.

Compound	Percent Effect
CC(C)N1CCN(Cc2ccc(N)nc2)CC1	-5.951%
Cc1nc2ccccc2n1CCCN	3.605%
Cc1cccc(NC(=O)CCN2CCN(C)CC2)c1	3.301%
Cn1cc(CN)c(C(F)(F)F)n1	98.21%
Cc1c(C(C)N[C@@H]2C=C[C@H](CO)C2)cnn1C (stereo partly drawn)	3.552%
CC(CNC(=O)C1=NN(C)C(=O)CC1)N1CCCC1 (stereo not drawn)	-4.318%
COc1ccc(CNc2ccncc2F)cc1C#N	-2.676%
CC(C)NC(=O)CSc1nc(C=Cc2cccs2)n[nH]1	3.228%
CCC[C@H]1CN(C(=O)c2csc(NC)n2)C[C@@H]1N	15.01%
NS(=O)(=O)CCCC(=O)N1CCCC(c2ncc[nH]2)C1 (stereo not drawn)	-16.37%
CC1CN(C(=O)c2cccc(-n3cnnn3)c2)CCO1 (stereo not drawn)	7.167%
CCOCCS(=O)(=O)Cc1cccc(OC)c1	19.05%
CC(C)(CO)C(N)c1cccnc1 (stereo not drawn)	22.26%
Cc1cc(CN(C)S(=O)(=O)c2c(C)noc2C)no1	8.233%
C=C(C)CSCC(=O)NC1CCOCC1	-3.35%
N#CCCN1CCC(NC(=O)C2CC2)CC1	9.702%
O=C(c1ccncc1F)N1CCOc2ncccc21	-1.783%
CNC(=O)C1CCN(Cc2c(F)cccc2Cl)C1 (stereo not drawn)	8.53%
CC1Oc2ccc(NC(=O)c3ccco3)cc2NC1=O (stereo not drawn)	-4.641%
O=C(Cn1ccc(=O)[nH]c1=O)Nc1ccc(Br)cc1	1.352%
Cc1nn(CCO)c(NC(C)c2nccs2)c1C (stereo not drawn)	-2.968%
Cn1ccsc1=NC(=O)c1ccc(OCC(N)=O)cc1	1.269%
CCC(=O)N1CCN(C(=O)CC2CCCCC2)CC1	-15.86%
CC(CN1CCOCC1)NS(=O)(=O)c1ncn(C)c1Cl (stereo not drawn)	4.269%
Cc1nn(C)cc1NC(=O)N1CCOC2(CCC2)C1	0.6881%
N#Cc1ccc(CN)cc1F	-0.7454%
COc1ccc(OC)c(NC(=O)N(C)CCN(C)C)c1	-4.1%
Cc1noc2ncnc(N3CCC4(CC3)OCCO4)c12	-11.9%
NC(=O)C1COCCN1c1nc(C2CC2)ns1 (stereo not drawn)	0.2195%
COC(=O)CNc1ccccc1	-7.982%
CN1CCN(C(=O)Nc2ccc(F)cc2)CC1	0.9615%
Cc1nc(CCNC(=O)c2ccc(=O)n(C)c2)sc1C	-16.77%
CC(C)(C)OC(=O)CN(CC1CNCCO1)S(C)(=O)=O (stereo not drawn)	2.65%
NC1CC(=O)N(Cc2ccccc2C(F)(F)F)C1 (stereo not drawn)	-2.664%
COc1ccc(CC(=O)Nc2cnn(C)c2)cc1F	-21.5%
CCC(Nc1cccc(OCC(F)(F)F)c1)C(N)=O (stereo not drawn)	-6.008%
c1ccc(-c2nc3c([nH]2)CCNC3)cc1	6.419%
CCOc1ccc(C(=O)n2cnnc2N)cc1	-4.329%
O=C(Nc1nc(-c2cccs2)ns1)C1CCCN1 (stereo not drawn)	4.337%
Cc1csc(C(C)NC(=O)NCCCO)n1 (stereo not drawn)	1.37%
CS(=O)(=O)Cc1ccc(NC(=O)N2CCCC2)cc1F	0.5063%
NCc1cccc(N2CC=CC2)c1	18.83%
CC1CCCN1CC(=O)Nc1ncccc1O (stereo not drawn)	7.362%
Cc1nn(C)c(C)c1CC(N)=O	-15.8%
COC(=O)c1snc(C(=O)NCc2ccccc2)c1N	-15.31%
O=C(N[C@@H]1CNC[C@H]1CO)C1CCC1	-0.2309%
CCSc1nc(N)c(C#N)cc1C#N	-44.54%
Cc1cc(-c2noc(C(C)N)n2)ccc1F (stereo not drawn)	-11.09%
CC(=O)N1CC(NC(=O)CCc2cc(F)ccc2Br)C1	3.15%
Cc1[nH]ncc1CCCN	-2.982%
CC1=C(C(=O)NC(C)c2nc3ccccc3[nH]2)CCO1 (stereo not drawn)	3.434%
Nc1nccnc1C(=O)Nc1ccccn1	-3.239%

The first 4 entries again:

| Compound | Percent Effect |
|---|---|
| `CC(C)N1CCN(Cc2ccc(N)nc2)CC1` | -5.951% |
| `Cc1nc2ccccc2n1CCCN` | 3.605% |
| `Cc1cccc(NC(=O)CCN2CCN(C)CC2)c1` | 3.301% |
| `Cn1cc(CN)c(C(F)(F)F)n1` | 98.21% |

Data taken from ChEMBL document CHEMBL3988442, “University of Dundee, Small-Polar-MMV Screening Library” (2021).